Assay results published in article PMC6245796.
No constants are given. Whether binding was seen depends on the method and setting. Binding seen in cells or lysates may run through a third protein. Some binding calls cover weakened binding; strength is not graded here. For part of these data: Where a sequence is shown, tags or fusion partners need not be part of it. One block for each molecule: values may come before it.

Chains of the proteins cited; added tags and fusions are not shown.
UniProt Q9BUL8: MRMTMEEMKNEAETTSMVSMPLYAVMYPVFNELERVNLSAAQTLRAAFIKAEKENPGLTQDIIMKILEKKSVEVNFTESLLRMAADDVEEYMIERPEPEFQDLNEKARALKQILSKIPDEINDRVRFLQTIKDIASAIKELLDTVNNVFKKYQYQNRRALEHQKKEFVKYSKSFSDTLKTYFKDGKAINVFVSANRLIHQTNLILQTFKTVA
UniProt Q96CV9: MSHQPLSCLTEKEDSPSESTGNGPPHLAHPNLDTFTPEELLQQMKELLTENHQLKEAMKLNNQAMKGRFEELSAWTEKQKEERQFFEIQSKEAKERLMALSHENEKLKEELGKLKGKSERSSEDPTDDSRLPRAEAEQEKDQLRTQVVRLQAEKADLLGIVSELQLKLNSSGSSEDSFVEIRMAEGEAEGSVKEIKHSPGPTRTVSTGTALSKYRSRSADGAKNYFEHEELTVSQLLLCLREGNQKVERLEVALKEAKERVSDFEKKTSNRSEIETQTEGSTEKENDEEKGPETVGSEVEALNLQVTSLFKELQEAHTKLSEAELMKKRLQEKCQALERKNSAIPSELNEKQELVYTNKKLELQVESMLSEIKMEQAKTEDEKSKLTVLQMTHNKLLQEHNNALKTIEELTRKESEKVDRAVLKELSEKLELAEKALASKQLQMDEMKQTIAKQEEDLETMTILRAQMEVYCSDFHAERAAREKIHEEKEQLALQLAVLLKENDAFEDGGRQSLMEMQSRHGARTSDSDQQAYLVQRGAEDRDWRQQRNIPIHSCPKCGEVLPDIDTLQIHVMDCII
UniProt Q9UBN7: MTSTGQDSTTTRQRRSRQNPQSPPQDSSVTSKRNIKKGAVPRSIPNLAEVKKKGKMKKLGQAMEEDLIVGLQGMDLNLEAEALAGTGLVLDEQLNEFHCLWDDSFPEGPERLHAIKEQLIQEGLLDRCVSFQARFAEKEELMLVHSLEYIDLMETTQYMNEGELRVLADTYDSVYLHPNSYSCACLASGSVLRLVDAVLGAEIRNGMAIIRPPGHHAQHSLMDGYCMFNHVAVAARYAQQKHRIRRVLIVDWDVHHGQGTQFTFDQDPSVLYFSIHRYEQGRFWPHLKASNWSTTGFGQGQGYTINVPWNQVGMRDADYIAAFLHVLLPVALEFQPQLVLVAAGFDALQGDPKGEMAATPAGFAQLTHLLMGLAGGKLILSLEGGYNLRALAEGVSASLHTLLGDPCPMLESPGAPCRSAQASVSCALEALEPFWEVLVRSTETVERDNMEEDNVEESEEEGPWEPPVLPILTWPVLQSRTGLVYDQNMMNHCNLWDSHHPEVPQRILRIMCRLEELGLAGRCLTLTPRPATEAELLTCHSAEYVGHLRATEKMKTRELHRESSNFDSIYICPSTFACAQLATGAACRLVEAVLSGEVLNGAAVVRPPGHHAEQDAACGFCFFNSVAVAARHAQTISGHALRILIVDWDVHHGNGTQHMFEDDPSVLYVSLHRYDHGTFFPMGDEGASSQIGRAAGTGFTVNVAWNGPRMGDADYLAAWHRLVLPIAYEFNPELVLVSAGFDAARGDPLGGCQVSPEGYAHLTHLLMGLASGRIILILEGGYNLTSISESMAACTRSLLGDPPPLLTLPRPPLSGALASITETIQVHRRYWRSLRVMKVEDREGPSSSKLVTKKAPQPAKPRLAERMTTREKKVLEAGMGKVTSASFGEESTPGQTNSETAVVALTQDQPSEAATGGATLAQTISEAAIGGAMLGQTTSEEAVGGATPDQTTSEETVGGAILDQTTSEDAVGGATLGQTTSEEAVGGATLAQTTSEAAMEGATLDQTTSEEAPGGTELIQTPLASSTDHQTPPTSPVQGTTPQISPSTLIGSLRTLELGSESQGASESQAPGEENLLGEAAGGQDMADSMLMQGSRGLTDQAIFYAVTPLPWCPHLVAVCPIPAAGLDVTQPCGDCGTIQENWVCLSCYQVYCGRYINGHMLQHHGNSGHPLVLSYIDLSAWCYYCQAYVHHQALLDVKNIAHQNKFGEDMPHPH

What was measured:
FLAG-PDCD10 [1] = molecular target: FLAG-PDCD10 (UniProt Q9BUL8); experiment: co-IP; extracts of HEK293T cells co-transfected with one FLAG-tagged and one HA-tagged protein, 24 hours after transfection; low salt lysis buffer or RIPA buffer, 4 hours at 4°C, anti-FLAG or anti-HA agarose
[2] = molecular target: T1, TRIM59, endogenous in MCF7 cells (human (endogenous in MCF7)) (UniProt Q8IWR1); experiment: co-IP; endogenous proteins, extracts of MCF7 cells; IP with anti-TRIM59 antibody, blot with anti-PDCD10 antibody; IgG as negative control
T1 sequence: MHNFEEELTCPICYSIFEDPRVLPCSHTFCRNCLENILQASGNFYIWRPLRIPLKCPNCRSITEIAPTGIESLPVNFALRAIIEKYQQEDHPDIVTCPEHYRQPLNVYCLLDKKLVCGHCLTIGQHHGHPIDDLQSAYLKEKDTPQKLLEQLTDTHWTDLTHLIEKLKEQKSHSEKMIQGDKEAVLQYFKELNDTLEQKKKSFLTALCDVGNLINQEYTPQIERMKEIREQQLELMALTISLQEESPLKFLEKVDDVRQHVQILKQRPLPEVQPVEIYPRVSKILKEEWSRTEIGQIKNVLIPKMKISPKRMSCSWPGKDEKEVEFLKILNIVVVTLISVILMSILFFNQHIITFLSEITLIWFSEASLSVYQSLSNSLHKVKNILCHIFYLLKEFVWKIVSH

FLAG-PDCD10 [3] = molecular target: FLAG-PDCD10 (UniProt Q9BUL8); experiment: co-IP; extracts of HEK293T cells transfected with HA-p62 and FLAG-PDCD10 along with empty vector or Myc-TRIM59
[4] = molecular target: PDCD10, endogenous in MCF7 and MDA-MB-231 cells (human (endogenous in MCF7 and MDA-MB-231)) (UniProt Q9BUL8); experiment: co-IP; endogenous proteins, extracts of WT or TRIM59 OE MDA-MB-231 cells and WT or TRIM59 KO MCF7 cells, blot for RNFT1, IgG controls; cells treated with BafA1 to maintain PDCD10 levels
FLAG-PDCD10 [5] = molecular target: FLAG-PDCD10 (UniProt Q9BUL8); experiment: co-IP; extracts of HEK293T cells co-transfected with one FLAG-tagged and one HA-tagged protein, 24 hours after transfection; low salt lysis buffer or RIPA buffer, 4 hours at 4°C, anti-FLAG or anti-HA agarose; remark: listed apart in the source
FLAG-p62 = FLAG-p62 (UniProt Q13501); experiment: as above

binding (FLAG-PDCD10 [1]): no binding
Molecule: HA-OPTN (from UniProt Q96CV9 1-577)

binding [2]: binds
Molecule: PDCD10, endogenous in MCF7 and MDA-MB-231 cells (from UniProt Q9BUL8 1-212)

binding (FLAG-PDCD10 [1]): no binding
Molecule: HA-HDAC6 (from UniProt Q9UBN7 1-1215)

binding (FLAG-PDCD10 [3]): binds
binding (FLAG-PDCD10 [1]): binds
Molecule: HA-p62 (from UniProt Q13501 1-440)

binding [4]: binds
B1: RNFT1, endogenous in MCF7 and MDA-MB-231 cells (protein, UniProt Q5M7Z0 1-435)
chain: MPLFLLSLPTPPSASGHERRQRPEAKTSGSEKKYLRAMQANRSQLHSPPGTGSSEDASTPQCVHTRLTGEGSCPHSGDVHIQINSIPKECAENASSRNIRSGVHSCAHGCVHSRLRGHSHSEARLTDDTAAESGDHGSSSFSEFRYLFKWLQKSLPYILILSVKLVMQHITGISLGIGLLTTFMYANKSIVNQVFLRERSSKIQCAWLLVFLAGSSVLLYYTFHSQSLYYSLIFLNPTLDHLSFWEVFWIVGITDFILKFFFMGLKCLILLVPSFIMPFKSKGYWYMLLEELCQYYRTFVPIPVWFRYLISYGEFGNVTRWSLGILLALLYLILKLLEFFGHLRTFRQVLRIFFTQPSYGVAASKRQCSDVDDICSICQAEFQKPILLICQHIFCEECMTLWFNREKTCPLCRTVISDHINKWKDGATSSHLQIY

binding (FLAG-PDCD10 [5]): no binding
B2: HA-NDP52 (protein, UniProt Q13137 1-446)
chain: MEETIKDPPTSAVLLDHCHFSQVIFNSVEKFYIPGGDVTCHYTFTQHFIPRRKDWIGIFRVGWKTTREYYTFMWVTLPIDLNNKSAKQQEVQFKAYYLPKDDEYYQFCYVDEDGVVRGASIPFQFRPENEEDILVVTTQGEVEEIEQHNKELCKENQELKDSCISLQKQNSDMQAELQKKQEELETLQSINKKLELKVKEQKDYWETELLQLKEQNQKMSSENEKMGIRVDQLQAQLSTQEKEMEKLVQGDQDKTEQLEQLKKENDHLFLSLTEQRKDQKKLEQTVEQMKQNETTAMKKQQELMDENFDLSKRLSENEIICNALQRQKERLEGENDLLKRENSRLLSYMGLDFNSLPYQVPTSDEGGARQNPGLAYGNPYSGIQESSSPSPLSIKKCPICKADDICDHTLEQQQMQPLCFNCPICDKIFPATEKQIFEDHVFCHSL

binding (FLAG-PDCD10 [5]): binds
binding (FLAG-p62): no binding
B3: HA-TRIM59 full-length WT (FL) (protein, UniProt Q8IWR1 1-403)
chain: T1 sequence
